Source: patent US20100240774A1, “USE OF HYDROPHOBIN POLYPEPTIDES AS PENETRATION ENHANCERS” (BASF SE, priority 2007, published 2010)

B1: hydrophobin A: fusion hydrophobin, SEQ ID NO: 20 from WO2007/14897 and herein (yaad-Xa-dewA-his) (protein)
chain: MAQTGTERVKRGMAEMQKGGVIMDVINAEQAKIAEEAGAVAVMALERVPADIRAAGGVARMADPTIVEEVMNAVSIPVMAKARIGHIVEARVLEAMGVDYIDESEVLTPADEEFHLNKNEYTVPFVCGCRDLGEATRRIAEGASMLRTKGEPGTGNIVEAVRHMRKVNAQVRKVVAMSEDELMTEAKNLGAPYELLLQIKKDGKLPVVNFAAGGVATPADAALMMQLGADGVFVGSGIFKSDNPAKFAKAIVEATTHFTDYKLIAELSKELGTAMKGIEISNLLPEQRMQERGWRSIEGRMRFIVSLLAFTAAATATALPASAAKNAKLATSAAFAKQAEGTTCNVGSIACCNSPAETNNDSLLSGLLGAGLLNGLSGNTGSACAKASLIDQLGLLALVDHTEEGPVCKNIVACCPEGTTNCVAVDNAGAGTKAEGSHHHHHH
modifications: basf-yaad-Xa-dewA-his fusion of Bacillus subtilis yaaD and N-terminal factor Xa proteinase cleavage site and Aspergillus nidulans hydrophobin dewA and his6
B2: hydrophobin B: fusion hydrophobin, SEQ ID NO: 26 from WO2007/14897; SEQ ID NO: 36 herein (yaad40-Xa-dewA-his) (protein)
chain: MAQTGTERVKRGMAEMQKGGVIMDVINAEQAKIAEEAGAVIEGRMRFIVSLLAFTAAATATALPASAAKNAKLATSAAFAKQAEGTTCNVGSIACCNSPAETNNDSLLSGLLGAGLLNGLSGNTGSACAKASLIDQLGLLALVDHTEEGPVCKNIVACCPEGTTNCVAVDNAGAGTKAEGSHHHHHH
modifications: fusion protein yaad40-Xa-dewA-his

Test: absorption and binding of hair tint dyes by hydrophobin treated hair
Conditions: hair incubated 1 hour at 32° C. with 0.01 to 0.2 percent by weight hydrophobin, then tinted and repeatedly washed; particularly first test variation

Molecule	binding and dye absorption of hair tint
B1	increased binding and dye absorption
B2	increased binding and dye absorption
